Record: PubChem BioAssay AID1508588 (Peter MacCallum Cancer Centre, 2020)
Shown is an unselected part of about 18,000 deposited reagents. 790 of all reagents (4.4%) were called active. 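Calls rest on a combination of fold-change classes in drug and vehicle arms, not all shown here.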 Unmarked entries are inactive.

Test: 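Genome-wide search for knock-downs that heighten vemurafenib action in melanoma cells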 (primary screen)
Cells: human WM266.4 melanoma cells (BRAF V600 mutant)
Reagents: siRNA pool against human genes, 40 nM
Timing: 96 h from transfection to read-out
Treatment: vemurafenib 300 nM (about IC25), added 48 h after transfection, for 48 h; comparison arm got DMSO vehicle only
Read-out: 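Ratios to non-targeting siRNA for cell gain, counted as DAPI nuclei after minus before drug and averaged over two replicates, and for absorbance-read medium lactate per cell; both binned into fold-change classes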
Reading the numbers: cell gain with vemurafenib: higher = more cell gain than with non-targeting siRNA; lactate per cell with vemurafenib: higher = more lactate made per cell
Rule for the call: 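Enhancement is called by pairing each knock-down's vehicle-arm and drug-arm fold-change classes for viability or glycolysis; which class combinations qualify is not given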
Calls: active = enhances vemurafenib effect; inactive = no enhancement seen

SIM1 [SID134314504] | cell gain with vemurafenib: 0.92; lactate per cell with vemurafenib: 0.76
ALG5 [SID134317619] | cell gain with vemurafenib: 1.02 (active); lactate per cell with vemurafenib: 0.55
FANCI [SID152149246] | cell gain with vemurafenib: 0.72; lactate per cell with vemurafenib: 1.12
ASCL2 [SID135621702] | cell gain with vemurafenib: 0.54; lactate per cell with vemurafenib: 0.92
ZW10 [SID134310184] | cell gain with vemurafenib: 0.56 (active); lactate per cell with vemurafenib: 0.45
DBF4 [SID135620786] | cell gain with vemurafenib: 0.8; lactate per cell with vemurafenib: 1
OR9I1 [SID152149159] | cell gain with vemurafenib: 0.13 (active); lactate per cell with vemurafenib: 0.4
IVL [SID135622021] | cell gain with vemurafenib: 0.94; lactate per cell with vemurafenib: 0.62
PGBD4 [SID152152080] | cell gain with vemurafenib: 1; lactate per cell with vemurafenib: 0.6
LBH [SID135622706] | cell gain with vemurafenib: 0.09; lactate per cell with vemurafenib: 1.5
TIMM17B [SID134323792] | cell gain with vemurafenib: 0.71; lactate per cell with vemurafenib: 0.89
YWHAE [SID135623306] | cell gain with vemurafenib: -0.01; lactate per cell with vemurafenib: 2.94
CBX1 [SID134314439] | cell gain with vemurafenib: 0.3; lactate per cell with vemurafenib: 1.51
RFWD3 [SID152147600] | cell gain with vemurafenib: 0.43; lactate per cell with vemurafenib: 1.2
ZNF597 [SID134320740] | cell gain with vemurafenib: 0.18 (active); lactate per cell with vemurafenib: 0.4
CDAN1 [SID135622955] | cell gain with vemurafenib: 0.88; lactate per cell with vemurafenib: 0.68

Reformatted: 2 of the entries above.
{"Gene":"OR9I1","PubChem SID":"SID152149159","cell gain with vemurafenib":"0.13 (active)","lactate per cell with vemurafenib":0.4}
{"Gene":"IVL","PubChem SID":"SID135622021","cell gain with vemurafenib":0.94,"lactate per cell with vemurafenib":0.62}
